From the supplement of paper PMC7666118 come the findings set out here.

The chains behind the UniProt entries cited, without tags or fusion partners. Where a name states a change or a piece, a line headed by the entry shows the natural chain unless it says otherwise.
UniProt Q9BSV6: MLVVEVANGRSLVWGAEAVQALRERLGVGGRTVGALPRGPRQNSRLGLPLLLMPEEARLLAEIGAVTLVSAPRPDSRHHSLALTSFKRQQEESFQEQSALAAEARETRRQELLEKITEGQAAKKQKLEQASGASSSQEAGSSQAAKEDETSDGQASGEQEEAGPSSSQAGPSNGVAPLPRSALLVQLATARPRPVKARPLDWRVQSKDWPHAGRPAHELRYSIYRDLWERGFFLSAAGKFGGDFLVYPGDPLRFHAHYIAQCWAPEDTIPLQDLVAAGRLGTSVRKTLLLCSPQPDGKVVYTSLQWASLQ
UniProt O43615: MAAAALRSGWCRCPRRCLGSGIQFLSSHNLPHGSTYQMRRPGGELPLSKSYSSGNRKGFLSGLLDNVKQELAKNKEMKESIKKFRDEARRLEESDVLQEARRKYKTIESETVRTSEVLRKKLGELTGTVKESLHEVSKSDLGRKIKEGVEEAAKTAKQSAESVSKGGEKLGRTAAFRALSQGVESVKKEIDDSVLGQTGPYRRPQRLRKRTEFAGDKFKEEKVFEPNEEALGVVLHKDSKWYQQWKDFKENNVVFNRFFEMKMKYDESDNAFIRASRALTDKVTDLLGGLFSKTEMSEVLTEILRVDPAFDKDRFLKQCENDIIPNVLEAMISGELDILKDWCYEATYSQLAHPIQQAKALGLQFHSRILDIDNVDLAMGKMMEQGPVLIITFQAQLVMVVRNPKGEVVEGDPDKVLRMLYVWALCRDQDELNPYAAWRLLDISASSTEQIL
UniProt Q9HCJ0: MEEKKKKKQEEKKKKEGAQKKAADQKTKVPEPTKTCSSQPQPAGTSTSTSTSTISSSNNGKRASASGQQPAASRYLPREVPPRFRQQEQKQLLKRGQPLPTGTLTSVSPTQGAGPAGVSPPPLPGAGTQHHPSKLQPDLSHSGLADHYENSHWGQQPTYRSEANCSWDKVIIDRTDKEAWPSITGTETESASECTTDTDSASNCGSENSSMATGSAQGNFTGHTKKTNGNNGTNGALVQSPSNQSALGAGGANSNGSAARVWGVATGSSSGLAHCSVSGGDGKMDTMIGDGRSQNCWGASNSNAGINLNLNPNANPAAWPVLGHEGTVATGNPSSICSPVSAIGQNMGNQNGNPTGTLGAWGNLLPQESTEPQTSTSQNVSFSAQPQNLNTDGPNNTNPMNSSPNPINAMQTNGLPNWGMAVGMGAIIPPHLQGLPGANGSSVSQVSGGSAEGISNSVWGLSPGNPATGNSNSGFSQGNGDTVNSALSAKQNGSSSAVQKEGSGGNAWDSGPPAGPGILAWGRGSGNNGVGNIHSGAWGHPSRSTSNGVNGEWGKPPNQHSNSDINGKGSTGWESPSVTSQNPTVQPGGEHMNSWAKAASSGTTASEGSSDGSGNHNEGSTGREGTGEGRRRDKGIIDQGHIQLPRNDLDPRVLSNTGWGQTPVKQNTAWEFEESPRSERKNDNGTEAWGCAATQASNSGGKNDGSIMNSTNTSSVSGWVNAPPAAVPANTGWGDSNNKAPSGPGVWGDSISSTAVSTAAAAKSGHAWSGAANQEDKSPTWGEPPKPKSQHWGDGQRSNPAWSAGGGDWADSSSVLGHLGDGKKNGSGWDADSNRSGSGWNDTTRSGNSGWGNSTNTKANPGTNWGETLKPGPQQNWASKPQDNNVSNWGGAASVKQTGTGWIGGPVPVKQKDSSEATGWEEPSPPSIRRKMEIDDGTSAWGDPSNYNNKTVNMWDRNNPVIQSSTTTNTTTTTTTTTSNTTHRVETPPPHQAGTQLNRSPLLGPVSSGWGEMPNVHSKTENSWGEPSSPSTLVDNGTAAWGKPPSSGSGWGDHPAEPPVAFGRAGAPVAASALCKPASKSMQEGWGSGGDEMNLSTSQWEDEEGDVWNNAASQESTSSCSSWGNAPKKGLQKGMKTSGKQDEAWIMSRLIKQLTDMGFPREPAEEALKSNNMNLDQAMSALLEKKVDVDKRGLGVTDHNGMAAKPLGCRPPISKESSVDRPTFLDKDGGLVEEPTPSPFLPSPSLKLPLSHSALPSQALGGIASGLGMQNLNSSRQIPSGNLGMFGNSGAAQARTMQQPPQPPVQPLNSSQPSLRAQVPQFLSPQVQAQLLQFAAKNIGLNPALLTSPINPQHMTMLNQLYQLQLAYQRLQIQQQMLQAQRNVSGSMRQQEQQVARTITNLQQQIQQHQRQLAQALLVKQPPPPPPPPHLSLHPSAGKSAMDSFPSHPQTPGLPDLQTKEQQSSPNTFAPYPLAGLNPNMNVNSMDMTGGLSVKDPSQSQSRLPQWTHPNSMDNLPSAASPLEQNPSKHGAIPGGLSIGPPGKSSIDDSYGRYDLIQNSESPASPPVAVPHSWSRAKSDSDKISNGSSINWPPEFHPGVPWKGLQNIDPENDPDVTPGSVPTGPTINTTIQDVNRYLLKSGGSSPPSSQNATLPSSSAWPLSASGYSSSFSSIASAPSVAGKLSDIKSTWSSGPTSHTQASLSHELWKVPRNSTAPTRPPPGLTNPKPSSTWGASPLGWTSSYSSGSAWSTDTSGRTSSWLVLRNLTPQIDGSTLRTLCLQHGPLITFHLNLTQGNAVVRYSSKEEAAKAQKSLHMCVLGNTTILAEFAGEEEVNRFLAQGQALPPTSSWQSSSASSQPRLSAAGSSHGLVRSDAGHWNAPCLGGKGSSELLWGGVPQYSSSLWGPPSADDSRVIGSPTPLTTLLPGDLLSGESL
UniProt Q9UL33, whole entry: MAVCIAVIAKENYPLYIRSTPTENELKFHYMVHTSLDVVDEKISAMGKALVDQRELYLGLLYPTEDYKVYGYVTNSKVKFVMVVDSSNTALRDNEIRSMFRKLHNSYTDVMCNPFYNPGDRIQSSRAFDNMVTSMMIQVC
UniProt Q6ZVM7: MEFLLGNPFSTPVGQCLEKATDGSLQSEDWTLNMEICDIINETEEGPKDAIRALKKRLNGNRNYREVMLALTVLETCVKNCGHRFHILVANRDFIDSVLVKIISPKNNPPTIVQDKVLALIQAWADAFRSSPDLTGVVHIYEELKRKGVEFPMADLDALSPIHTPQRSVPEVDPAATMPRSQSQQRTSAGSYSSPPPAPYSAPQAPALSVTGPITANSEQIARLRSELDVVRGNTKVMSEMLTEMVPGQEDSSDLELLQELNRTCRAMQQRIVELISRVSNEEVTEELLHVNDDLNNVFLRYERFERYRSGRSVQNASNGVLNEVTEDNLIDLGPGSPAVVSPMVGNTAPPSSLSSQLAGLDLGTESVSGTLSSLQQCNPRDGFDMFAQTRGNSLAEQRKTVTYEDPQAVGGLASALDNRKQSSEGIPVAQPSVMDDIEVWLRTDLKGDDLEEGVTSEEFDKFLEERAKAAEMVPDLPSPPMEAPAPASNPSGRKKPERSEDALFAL
UniProt Q15633: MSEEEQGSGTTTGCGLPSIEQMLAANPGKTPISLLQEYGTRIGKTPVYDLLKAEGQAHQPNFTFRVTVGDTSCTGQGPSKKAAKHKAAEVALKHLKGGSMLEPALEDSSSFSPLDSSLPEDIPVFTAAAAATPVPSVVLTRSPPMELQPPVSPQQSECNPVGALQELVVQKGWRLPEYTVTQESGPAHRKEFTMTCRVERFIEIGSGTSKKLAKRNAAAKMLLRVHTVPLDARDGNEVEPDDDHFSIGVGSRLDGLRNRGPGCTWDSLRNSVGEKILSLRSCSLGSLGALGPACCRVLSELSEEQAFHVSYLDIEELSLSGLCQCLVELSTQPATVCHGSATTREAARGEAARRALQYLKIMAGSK
UniProt O75347: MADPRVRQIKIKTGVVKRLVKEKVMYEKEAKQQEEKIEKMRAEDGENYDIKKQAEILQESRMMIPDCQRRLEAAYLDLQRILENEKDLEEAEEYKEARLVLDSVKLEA
UniProt Q8WVT3: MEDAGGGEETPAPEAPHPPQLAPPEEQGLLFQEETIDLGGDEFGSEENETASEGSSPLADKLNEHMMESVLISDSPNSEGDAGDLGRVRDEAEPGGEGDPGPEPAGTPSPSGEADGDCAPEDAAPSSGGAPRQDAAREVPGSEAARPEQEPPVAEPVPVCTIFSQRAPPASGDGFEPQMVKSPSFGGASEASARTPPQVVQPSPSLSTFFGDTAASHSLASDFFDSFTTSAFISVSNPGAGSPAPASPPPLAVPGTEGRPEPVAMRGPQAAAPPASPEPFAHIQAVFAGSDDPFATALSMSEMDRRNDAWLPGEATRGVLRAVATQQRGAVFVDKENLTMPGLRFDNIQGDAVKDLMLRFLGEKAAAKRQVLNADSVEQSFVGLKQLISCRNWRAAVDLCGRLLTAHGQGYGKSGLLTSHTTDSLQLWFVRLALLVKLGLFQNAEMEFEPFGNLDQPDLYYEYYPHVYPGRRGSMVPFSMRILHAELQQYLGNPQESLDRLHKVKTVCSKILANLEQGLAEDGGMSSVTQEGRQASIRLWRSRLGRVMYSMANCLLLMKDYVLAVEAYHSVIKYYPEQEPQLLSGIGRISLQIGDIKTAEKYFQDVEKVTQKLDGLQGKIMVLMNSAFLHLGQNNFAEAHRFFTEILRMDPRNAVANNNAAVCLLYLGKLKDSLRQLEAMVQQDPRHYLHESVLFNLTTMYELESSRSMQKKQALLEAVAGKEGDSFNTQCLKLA
UniProt Q8TEA7: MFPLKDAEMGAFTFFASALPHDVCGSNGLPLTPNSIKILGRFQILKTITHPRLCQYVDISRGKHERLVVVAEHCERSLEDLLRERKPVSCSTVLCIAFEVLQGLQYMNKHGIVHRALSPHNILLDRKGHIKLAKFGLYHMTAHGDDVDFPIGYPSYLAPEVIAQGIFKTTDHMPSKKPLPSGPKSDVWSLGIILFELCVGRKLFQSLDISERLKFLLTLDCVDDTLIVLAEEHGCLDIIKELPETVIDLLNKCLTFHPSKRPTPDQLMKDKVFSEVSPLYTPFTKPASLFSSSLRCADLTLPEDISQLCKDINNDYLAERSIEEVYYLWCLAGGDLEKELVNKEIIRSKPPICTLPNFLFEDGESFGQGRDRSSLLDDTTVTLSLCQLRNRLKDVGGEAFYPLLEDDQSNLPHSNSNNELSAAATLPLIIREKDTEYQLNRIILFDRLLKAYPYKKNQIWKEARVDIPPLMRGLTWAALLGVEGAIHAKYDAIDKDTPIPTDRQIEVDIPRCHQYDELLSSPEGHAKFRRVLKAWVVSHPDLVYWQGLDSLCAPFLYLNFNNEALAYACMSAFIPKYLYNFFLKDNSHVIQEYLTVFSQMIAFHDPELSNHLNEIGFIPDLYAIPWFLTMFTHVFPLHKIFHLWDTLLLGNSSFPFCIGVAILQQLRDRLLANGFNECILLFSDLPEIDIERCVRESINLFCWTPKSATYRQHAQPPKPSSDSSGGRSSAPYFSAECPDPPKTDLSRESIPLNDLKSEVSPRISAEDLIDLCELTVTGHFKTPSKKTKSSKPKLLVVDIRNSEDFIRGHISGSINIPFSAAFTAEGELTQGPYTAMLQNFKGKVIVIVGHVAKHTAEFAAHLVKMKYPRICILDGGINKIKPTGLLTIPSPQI
UniProt P33981: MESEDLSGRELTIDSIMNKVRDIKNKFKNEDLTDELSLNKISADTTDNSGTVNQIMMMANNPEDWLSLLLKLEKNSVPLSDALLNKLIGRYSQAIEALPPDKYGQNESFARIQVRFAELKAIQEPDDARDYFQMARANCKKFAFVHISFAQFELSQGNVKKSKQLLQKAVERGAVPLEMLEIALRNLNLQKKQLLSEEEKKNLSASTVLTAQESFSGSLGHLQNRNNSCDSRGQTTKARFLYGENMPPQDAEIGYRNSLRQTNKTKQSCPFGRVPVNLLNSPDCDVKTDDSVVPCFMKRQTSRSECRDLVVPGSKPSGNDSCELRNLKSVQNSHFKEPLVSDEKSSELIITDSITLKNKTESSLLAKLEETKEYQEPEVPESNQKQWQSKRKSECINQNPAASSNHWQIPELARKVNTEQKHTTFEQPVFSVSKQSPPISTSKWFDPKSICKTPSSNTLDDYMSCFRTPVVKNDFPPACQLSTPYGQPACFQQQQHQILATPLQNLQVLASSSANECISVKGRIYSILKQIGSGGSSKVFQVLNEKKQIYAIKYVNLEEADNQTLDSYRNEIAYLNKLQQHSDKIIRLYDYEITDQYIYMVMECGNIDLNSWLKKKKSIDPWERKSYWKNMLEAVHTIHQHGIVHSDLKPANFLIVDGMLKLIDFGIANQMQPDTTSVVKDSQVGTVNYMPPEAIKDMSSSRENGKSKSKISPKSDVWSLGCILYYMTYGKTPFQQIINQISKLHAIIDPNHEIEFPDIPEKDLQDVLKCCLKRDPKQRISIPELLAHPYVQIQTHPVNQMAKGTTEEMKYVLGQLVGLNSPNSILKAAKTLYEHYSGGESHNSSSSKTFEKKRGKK
UniProt P62995: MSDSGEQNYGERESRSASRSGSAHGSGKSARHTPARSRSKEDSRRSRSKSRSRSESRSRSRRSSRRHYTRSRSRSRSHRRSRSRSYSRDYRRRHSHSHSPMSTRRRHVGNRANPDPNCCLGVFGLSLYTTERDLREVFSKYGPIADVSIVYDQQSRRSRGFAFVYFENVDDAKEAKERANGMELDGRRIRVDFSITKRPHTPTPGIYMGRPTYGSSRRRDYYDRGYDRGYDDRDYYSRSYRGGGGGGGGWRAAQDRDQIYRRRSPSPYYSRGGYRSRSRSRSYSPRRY

The list shows a part of the results.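 The calls were made as follows: active = dose-dependent thermal stabilisation significant by F-test of dose-response against flat model at 10% FDR; inactive = not significant.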

Compound in the assay: Nc1nc2c(ncn2[C@@H]2O[C@H](COP(=O)(O)OP(=O)(O)OP(=O)(O)O)[C@@H](O)[C@H]2O)c(=O)[nH]1
The experiment in a line: dose-dependent thermal stabilisation call (2D-TPP, DLPTP, 10% FDR) (binary (1 = stabilised)); higher = stabilised by the compound. The conditions noted are these: system: Jurkat gel-filtered lysate; concentration range 1-500 µM.
Consider TARS2 (UniProt Q9BW92), for which the “dose-dependent thermal stabilisation call” value is inactive: 0.
Take TRAF2 (UniProt Q12933): the “dose-dependent thermal stabilisation call” value was inactive: 0.
Take TECPR1 (UniProt Q7Z6L1): the “dose-dependent thermal stabilisation call” value is inactive: 0.
Then TASP1 (UniProt Q9H6P5), with inactive: 0; and TUBG1 (UniProt P23258), with active: 1; and TNPO1 (UniProt Q92973), with active: 1.
For the target TSEN34 (UniProt Q9BSV6), the “dose-dependent thermal stabilisation call” value is inactive: 0.
For the target TCEA1 (UniProt P23193), the “dose-dependent thermal stabilisation call” value was inactive: 0.
With TLE4 (UniProt Q04727) the figure was inactive: 0; with TIMM44 (UniProt O43615), inactive: 0.
For the target TNRC6C (UniProt Q9HCJ0), the “dose-dependent thermal stabilisation call” value was inactive: 0.
With TRAPPC2L (UniProt Q9UL33) the figure was inactive: 0; with TBC1D23 (UniProt Q9NUY8), inactive: 0.
Consider TMOD2 (UniProt Q9NZR1), for which the “dose-dependent thermal stabilisation call” value was inactive: 0.
With TPD52 (UniProt P55327) the figure was inactive: 0.
In the case of TFAP4 (UniProt Q01664), the “dose-dependent thermal stabilisation call” value was inactive: 0.
UBA5 (UniProt Q9GZZ9): the “dose-dependent thermal stabilisation call” value is inactive: 0.
With TRMT6 (UniProt Q9UJA5), the “dose-dependent thermal stabilisation call” value is inactive: 0.
Consider TOM1L2 (UniProt Q6ZVM7), for which the “dose-dependent thermal stabilisation call” value is inactive: 0.
With TARBP2 (UniProt Q15633), the “dose-dependent thermal stabilisation call” value was inactive: 0.
Then TDRD7 (UniProt Q8NHU6), with inactive: 0.
Take UBAC1 (UniProt Q9BSL1): the “dose-dependent thermal stabilisation call” value was inactive: 0.
With TBCA (UniProt O75347) the figure was inactive: 0; with TRAPPC12 (UniProt Q8WVT3), inactive: 0; with TBCK (UniProt Q8TEA7), inactive: 0.
Take TOE1 (UniProt Q96GM8): the “dose-dependent thermal stabilisation call” value is inactive: 0.
With TMEM57 (UniProt Q8N5G2), the “dose-dependent thermal stabilisation call” value is inactive: 0.
Turning to TTK (UniProt P33981), the “dose-dependent thermal stabilisation call” value is inactive: 0.
As for TXNL4A (UniProt P83876), the “dose-dependent thermal stabilisation call” value is inactive: 0.
Regarding TTC39C (UniProt Q8N584), the “dose-dependent thermal stabilisation call” value is inactive: 0.
For TIMM10 (UniProt P62072), the “dose-dependent thermal stabilisation call” value was inactive: 0.
On to UBA52 (UniProt P62987), for which the “dose-dependent thermal stabilisation call” value is inactive: 0.
On to TRA2B (UniProt P62995), for which the “dose-dependent thermal stabilisation call” value is active: 1.
Take THOC6 (UniProt Q86W42): the “dose-dependent thermal stabilisation call” value was inactive: 0.
Take TTPAL (UniProt Q9BTX7): the “dose-dependent thermal stabilisation call” value was inactive: 0.
In the case of TATDN3 (UniProt Q17R31), the “dose-dependent thermal stabilisation call” value is inactive: 0.
